Earlier results in patent publication US20120214775A1, “Pharmaceutical Salts of 3-O-(3',3'-Dimethylsuccinyl) Betulinic Acid” (priority 2004, published 2012).
Like-named read-outs stand apart in the source and are kept apart here. At least one compound was matched to its structure with a doubt left. Some entries share one result that the patent states for a list of compounds.

Tested on: HIV-1 replication in H9 lymphocyte cells
Conditions: cited from earlier work
[1] = acutely infected H9 lymphocytes, read-out: EC50, anti-HIV activity

C=C(C)[C@@H]1CC[C@]2(C(=O)O)CC[C@]3(C)[C@H](CC[C@@H]4[C@@]5(C)CC[C@H](O)C(C)(C)[C@@H]5CC[C@]43C)[C@@H]12 [Betulinic acid]
therapeutic index (T.I.) (H9 lymphocyte cells): 9.3 | EC50 (H9 lymphocyte cells, read-out: EC50, inhibitory activity against HIV-1 replication): 1400 nM

C=C(C)[C@H]1CC[C@]2(C(=O)O)CC[C@@]3(C)[C@H](CC[C@H]4[C@@]5(C)CC[C@H](OC(=O)CC(C)(C)C(=O)O)C(C)(C)[C@H]5CC[C@]43C)[C@H]12 [DSB, 3-O-(3′,3′-dimethylsuccinyl) betulinic acid]
EC50 [1]: < 0.017 nM

CC(C)C1CCC2(C(=O)O)CCC3(C)C(CCC4C5(C)CCC(OC(=O)CC(C)(C)C(=O)O)C(C)(C)C5CCC43C)C12 (stereo not shown) [dihydrobetulinic acid analog]
EC50 [1]: < 0.017 nM
